Consider one molecule from patent US20130095097A1.

Protein sequences, listed by entry. Tags and fused reporters are not part of them. Residues count along the entry.
UniProt P10747, residues 19-220: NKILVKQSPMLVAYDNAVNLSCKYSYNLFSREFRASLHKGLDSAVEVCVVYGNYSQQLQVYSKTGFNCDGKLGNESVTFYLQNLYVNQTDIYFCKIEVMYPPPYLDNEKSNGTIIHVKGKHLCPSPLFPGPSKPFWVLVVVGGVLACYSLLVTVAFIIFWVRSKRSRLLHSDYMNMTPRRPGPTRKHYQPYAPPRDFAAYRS

The target of this assay is CD28 on Jurkat T cells (UniProt P10747). The experiment in a line: flow cytometry on Jurkat cells; the bivalent comparator bound more strongly than the Interceptors. A general note: Flow cytometry measures light scatter and fluorescence of single cells or particles in a stream.

No constants are given. Whether binding was seen depends on the method and setting. Some entries that bind do so weakly or less than the wild type.

B1: 2E12 monoclonal antibody (mAb) (antibody, V domains shown)
VH: QVQLKESGPGSVAPSQSLSITCTVSGFSLTGYGVNWVRQPPGKGLEWLGMIWGDGSTDYNSALKSRLSITKDNSKSQVFLKMNSLQTDDTARYYCARDGYSNFHYYVMDYWGQGTSVTVSS
VL: DIVLTQSPASLAVSLGQRATISCRASESVEYYVTSLMQWYQQKPGQPPKLLISAASNVESGVPARFSGSGSGTDFSLNIHPVEEDDIAMYFCQQSRKVPWTFGGGTKLEIK
Regarding B1, the binding entry was “binds”.
